Laboratory results as given in the supplement of paper PMC8426693.
The other results are listed elsewhere or left out.

Columns and labels:
Test in all cases: NMR binding call after quantification (hit when 2 of 3 NMR criteria are met) (binary (1 = binding, 0 = not binding)); higher = binding
Details in all cases: RNA concentration 10 µM; fragment concentration 200 µM; 293 K
SARS-CoV-2 5'-UTR RNA = test system: SARS-CoV-2 5'-UTR RNA
SARS-CoV-2 5_SL1 RNA = test system: SARS-CoV-2 5_SL1 RNA
SARS-CoV-2 5_SL1234 RNA = test system: SARS-CoV-2 5_SL1234 RNA
SARS-CoV-2 5_SL2+3 RNA = test system: SARS-CoV-2 5_SL2+3 RNA
SARS-CoV-2 5_SL4 RNA = test system: SARS-CoV-2 5_SL4 RNA
SARS-CoV-2 5_SL5 RNA = test system: SARS-CoV-2 5_SL5 RNA
SARS-CoV-2 5_SL5a RNA = test system: SARS-CoV-2 5_SL5a RNA
SARS-CoV-2 5_SL5b+c RNA = test system: SARS-CoV-2 5_SL5b+c RNA
SARS-CoV-2 5_SL5stem RNA = test system: SARS-CoV-2 5_SL5stem RNA
SARS-CoV-2 5_SL6 RNA = test system: SARS-CoV-2 5_SL6 RNA

| Structure (SMILES) | NMR binding call (SARS-CoV-2 5'-UTR RNA) | NMR binding call (SARS-CoV-2 5_SL1 RNA) | NMR binding call (SARS-CoV-2 5_SL1234 RNA) | NMR binding call (SARS-CoV-2 5_SL2+3 RNA) | NMR binding call (SARS-CoV-2 5_SL4 RNA) | NMR binding call (SARS-CoV-2 5_SL5 RNA) | NMR binding call (SARS-CoV-2 5_SL5a RNA) | NMR binding call (SARS-CoV-2 5_SL5b+c RNA) | NMR binding call (SARS-CoV-2 5_SL5stem RNA) | NMR binding call (SARS-CoV-2 5_SL6 RNA) |
| --- | --- | --- | --- | --- | --- | --- | --- | --- | --- | --- |
| Cc1ncc(CN2CCNCC2)s1 | 0 | 0 | 0 | 0 | 0 | 0 | 0 | 0 | 0 | 0 |
| CCCn1c(NC(=O)CC)nc2ccccc21 | 0 | 0 | 0 | 0 | 0 | 0 | 0 | 0 | 0 | 0 |
| CCOC(=O)NCc1ccccc1 | 0 | 0 | 0 | 0 | 0 | 0 | 0 | 0 | 0 | 0 |
| COC(=O)C1CCN(C(=O)NC(C)(C)C)CC1 | 0 | 0 | 0 | 0 | 0 | 0 | 0 | 0 | 0 | 0 |
| CC(=O)Nc1cccc2nonc12 | 0 | 0 | 0 | 0 | 0 | 0 | 0 | 0 | 0 | 0 |
| CCCC(=O)NCc1nc2ccccc2[nH]1 | 0 | 0 | 0 | 0 | 0 | 0 | 0 | 0 | 0 | 0 |
| CNS(=O)(=O)Cc1cc(C)on1 | 0 | 0 | 0 | 0 | 0 | 0 | 0 | 0 | 0 | 0 |
| CC(=O)Nc1ccccc1CC(=O)O | 0 | 0 | 0 | 0 | 0 | 0 | 0 | 0 | 0 | 0 |
| CNC(C)c1sc(C)nc1C (stereo not given) | 0 | 0 | 0 | 0 | 0 | 0 | 0 | 0 | 0 | 0 |
| O=C(CC1CCCCC1)Nn1cnnc1 | 0 | 0 | 0 | 0 | 0 | 0 | 0 | 0 | 0 | 0 |
| CC(=O)N1CCCC2(CCCCCC2)C1 | 0 | 0 | 0 | 0 | 0 | 0 | 0 | 0 | 0 | 0 |
| O=C(O)c1ccccc1OC(F)(F)F | 0 | 0 | 0 | 0 | 0 | 0 | 0 | 0 | 0 | 0 |
| CCC(=O)NCc1nnc2n1CCCC2 | 0 | 0 | 0 | 0 | 0 | 0 | 0 | 0 | 0 | 0 |
| CC(C)(CO)NC(=O)Nc1ccc(Cl)cc1 | 0 | 0 | 0 | 0 | 0 | 0 | 0 | 0 | 0 | 0 |
| Fc1ccc(CNCc2ccccc2)cc1 | 0 | 0 | 0 | 0 | 0 | 0 | 0 | 0 | 0 | 0 |
| NC(=O)C1CCN(CCc2ccccc2)CC1 | 0 | 0 | 0 | 0 | 0 | 0 | 0 | 0 | 0 | 0 |
| COCc1nnc(N)s1 | 0 | 0 | 0 | 0 | 0 | 0 | 0 | 0 | 0 | 0 |
| NC(=O)N1CCN(c2ccc(F)cc2)CC1 | 0 | 0 | 0 | 0 | 0 | 0 | 0 | 0 | 0 | 0 |
| COc1cc(NC(C)=O)c(OC)cc1Cl | 0 | 0 | 0 | 0 | 0 | 0 | 0 | 0 | 0 | 0 |
| CC(=O)Nc1nnc(SC(C)C)s1 | 0 | 0 | 0 | 0 | 0 | 0 | 0 | 0 | 0 | 0 |
| CC1CCCC1NCCO (stereo not given) | 0 | 0 | 0 | 0 | 0 | 0 | 0 | 0 | 0 | 0 |
| O=C(C1CC1)N1CCN(c2ccc(F)cc2)CC1 | 0 | 0 | 0 | 0 | 0 | 0 | 0 | 0 | 0 | 0 |
| Cc1cccc(C(=O)NCC(=O)O)c1 | 0 | 0 | 0 | 0 | 0 | 0 | 0 | 0 | 0 | 0 |
| c1cc(CN2CCNCC2)no1 | 0 | 0 | 0 | 0 | 0 | 0 | 0 | 0 | 0 | 0 |
| CC(=O)N1Cc2ccc(N)cc2C1 | 0 | 0 | 0 | 0 | 0 | 0 | 0 | 0 | 0 | 0 |
| O=C(Nc1nncs1)c1ccccc1F | 0 | 0 | 0 | 0 | 0 | 0 | 0 | 0 | 0 | 0 |

Reformatted: results already given.
Structure (SMILES),NMR binding call (SARS-CoV-2 5'-UTR RNA),NMR binding call (SARS-CoV-2 5_SL1 RNA),NMR binding call (SARS-CoV-2 5_SL1234 RNA),NMR binding call (SARS-CoV-2 5_SL2+3 RNA),NMR binding call (SARS-CoV-2 5_SL4 RNA),NMR binding call (SARS-CoV-2 5_SL5 RNA),NMR binding call (SARS-CoV-2 5_SL5a RNA),NMR binding call (SARS-CoV-2 5_SL5b+c RNA),NMR binding call (SARS-CoV-2 5_SL5stem RNA),NMR binding call (SARS-CoV-2 5_SL6 RNA)
O=C(O)c1ccccc1OC(F)(F)F,0,0,0,0,0,0,0,0,0,0
CCC(=O)NCc1nnc2n1CCCC2,0,0,0,0,0,0,0,0,0,0
CC(C)(CO)NC(=O)Nc1ccc(Cl)cc1,0,0,0,0,0,0,0,0,0,0
Fc1ccc(CNCc2ccccc2)cc1,0,0,0,0,0,0,0,0,0,0
NC(=O)C1CCN(CCc2ccccc2)CC1,0,0,0,0,0,0,0,0,0,0
COCc1nnc(N)s1,0,0,0,0,0,0,0,0,0,0
NC(=O)N1CCN(c2ccc(F)cc2)CC1,0,0,0,0,0,0,0,0,0,0
COc1cc(NC(C)=O)c(OC)cc1Cl,0,0,0,0,0,0,0,0,0,0
CC(=O)Nc1nnc(SC(C)C)s1,0,0,0,0,0,0,0,0,0,0
CC1CCCC1NCCO (stereo not given),0,0,0,0,0,0,0,0,0,0
O=C(C1CC1)N1CCN(c2ccc(F)cc2)CC1,0,0,0,0,0,0,0,0,0,0
Cc1cccc(C(=O)NCC(=O)O)c1,0,0,0,0,0,0,0,0,0,0
c1cc(CN2CCNCC2)no1,0,0,0,0,0,0,0,0,0,0
CC(=O)N1Cc2ccc(N)cc2C1,0,0,0,0,0,0,0,0,0,0
O=C(Nc1nncs1)c1ccccc1F,0,0,0,0,0,0,0,0,0,0

Remaining list, next part.

| Structure (SMILES) | NMR binding call (SARS-CoV-2 5'-UTR RNA) | NMR binding call (SARS-CoV-2 5_SL1 RNA) | NMR binding call (SARS-CoV-2 5_SL1234 RNA) | NMR binding call (SARS-CoV-2 5_SL2+3 RNA) | NMR binding call (SARS-CoV-2 5_SL4 RNA) | NMR binding call (SARS-CoV-2 5_SL5 RNA) | NMR binding call (SARS-CoV-2 5_SL5a RNA) | NMR binding call (SARS-CoV-2 5_SL5b+c RNA) | NMR binding call (SARS-CoV-2 5_SL5stem RNA) | NMR binding call (SARS-CoV-2 5_SL6 RNA) |
| --- | --- | --- | --- | --- | --- | --- | --- | --- | --- | --- |
| CCNC1CCN(c2ccncc2)CC1 | 1 | 1 | 0 | 0 | 0 | 0 | 0 | 1 | 0 | 0 |
| CCNC(=O)CN1CC(C)OCC1C (stereo not given) | 0 | 0 | 0 | 0 | 0 | 0 | 0 | 0 | 0 | 0 |
| COc1ccc(CNC(=O)c2csnn2)cc1 | 0 | 0 | 0 | 0 | 0 | 0 | 0 | 0 | 0 | 0 |
| CC(=O)Nc1ccc(C)c2c1CCCN2 | 0 | 0 | 0 | 0 | 0 | 0 | 0 | 0 | 0 | 0 |
| CS(=O)(=O)NCCc1ccc(F)cc1 | 0 | 0 | 0 | 0 | 0 | 0 | 0 | 0 | 0 | 0 |
| CNC(=O)C1CNCCO1 (stereo not given) | 0 | 0 | 0 | 0 | 0 | 0 | 0 | 0 | 0 | 0 |
| Oc1ccccc1CN1CCc2ccccc2C1 | 0 | 0 | 0 | 0 | 0 | 0 | 0 | 0 | 0 | 0 |
| O=C(O)COCc1ccccc1 | 0 | 0 | 0 | 0 | 0 | 0 | 0 | 0 | 0 | 0 |
| c1ccc2sc(N3CCOCC3)nc2c1 | 0 | 0 | 0 | 0 | 0 | 0 | 0 | 0 | 0 | 0 |
| CC(=O)N(C)c1cccnc1 | 0 | 0 | 0 | 0 | 0 | 0 | 0 | 0 | 0 | 0 |
| CNC1(CO)CCOCC1 | 0 | 0 | 0 | 0 | 0 | 0 | 0 | 0 | 0 | 0 |
| Cc1nsc(N2CCCNCC2)n1 | 0 | 0 | 0 | 0 | 0 | 0 | 0 | 0 | 0 | 0 |
| N#Cc1ccc(N2CCNCC2)c(F)c1 | 0 | 0 | 0 | 0 | 0 | 0 | 0 | 0 | 0 | 0 |
| Cc1ccccc1CC(N)=O | 0 | 0 | 0 | 0 | 0 | 0 | 0 | 0 | 0 | 0 |
| CC(=O)c1ccc(OCC(=O)O)cc1 | 0 | 0 | 0 | 0 | 0 | 0 | 0 | 0 | 0 | 0 |
| CNC(=O)CCC1CCCCC1 | 0 | 0 | 0 | 0 | 0 | 0 | 0 | 0 | 0 | 0 |
| O=C(NCC1CCCO1)N1CCOCC1 (stereo not given) | 0 | 0 | 0 | 0 | 0 | 0 | 0 | 0 | 0 | 0 |
| c1ccc2c(CN3CCCCCC3)c[nH]c2c1 | 0 | 0 | 0 | 0 | 0 | 0 | 0 | 0 | 0 | 0 |
| CCNCc1cccc2[nH]ccc12 | 1 | 0 | 0 | 0 | 0 | 0 | 0 | 0 | 0 | 0 |
| CC(C)c1ncc(Cl)c(C(N)=O)n1 | 0 | 0 | 0 | 0 | 0 | 0 | 0 | 0 | 0 | 0 |
| CC(C)CC(=O)NCc1ccc2c(c1)OCO2 | 0 | 0 | 0 | 0 | 0 | 0 | 0 | 0 | 0 | 0 |
| NC(=O)c1ccc(NC(=O)C2CCCC2)cc1 | 0 | 0 | 0 | 0 | 0 | 0 | 0 | 0 | 0 | 0 |
| CNC(=O)C1CCCc2sc(C)nc21 (stereo not given) | 0 | 0 | 0 | 0 | 0 | 0 | 0 | 0 | 0 | 0 |
| CC(C)C(=O)Nc1nnn(C)n1 | 0 | 0 | 0 | 0 | 0 | 0 | 0 | 0 | 0 | 0 |
| CC(=O)N1CC(C(=O)O)C1 | 0 | 0 | 0 | 0 | 0 | 0 | 0 | 0 | 0 | 0 |
| Cc1ccc(CC(=O)NCC2CCCO2)cc1 (stereo not given) | 0 | 0 | 0 | 0 | 0 | 0 | 0 | 0 | 0 | 0 |
